According to the supplement of paper PMC10849652:
Some of the results follow. Residues, ends and D or L forms follow the SMILES beside them. *: point of attachment. Cbz = O=C(OCc1ccccc1)*

Chains of the proteins cited; added tags and fusions are not shown. Lines headed by an entry give the natural chain unless they say otherwise; changes in a name come on top.
UniProt Q6UWZ7: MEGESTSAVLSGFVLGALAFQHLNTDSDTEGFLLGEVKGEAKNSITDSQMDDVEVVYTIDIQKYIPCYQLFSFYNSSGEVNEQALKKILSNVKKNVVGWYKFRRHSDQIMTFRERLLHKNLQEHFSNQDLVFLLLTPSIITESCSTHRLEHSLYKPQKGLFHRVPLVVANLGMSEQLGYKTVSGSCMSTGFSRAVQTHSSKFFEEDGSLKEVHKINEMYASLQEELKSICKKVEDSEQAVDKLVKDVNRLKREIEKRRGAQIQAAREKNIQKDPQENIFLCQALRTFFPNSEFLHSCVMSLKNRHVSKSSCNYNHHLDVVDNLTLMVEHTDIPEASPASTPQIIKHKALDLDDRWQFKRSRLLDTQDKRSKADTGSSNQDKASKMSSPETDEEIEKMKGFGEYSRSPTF
UniProt Q6UY14: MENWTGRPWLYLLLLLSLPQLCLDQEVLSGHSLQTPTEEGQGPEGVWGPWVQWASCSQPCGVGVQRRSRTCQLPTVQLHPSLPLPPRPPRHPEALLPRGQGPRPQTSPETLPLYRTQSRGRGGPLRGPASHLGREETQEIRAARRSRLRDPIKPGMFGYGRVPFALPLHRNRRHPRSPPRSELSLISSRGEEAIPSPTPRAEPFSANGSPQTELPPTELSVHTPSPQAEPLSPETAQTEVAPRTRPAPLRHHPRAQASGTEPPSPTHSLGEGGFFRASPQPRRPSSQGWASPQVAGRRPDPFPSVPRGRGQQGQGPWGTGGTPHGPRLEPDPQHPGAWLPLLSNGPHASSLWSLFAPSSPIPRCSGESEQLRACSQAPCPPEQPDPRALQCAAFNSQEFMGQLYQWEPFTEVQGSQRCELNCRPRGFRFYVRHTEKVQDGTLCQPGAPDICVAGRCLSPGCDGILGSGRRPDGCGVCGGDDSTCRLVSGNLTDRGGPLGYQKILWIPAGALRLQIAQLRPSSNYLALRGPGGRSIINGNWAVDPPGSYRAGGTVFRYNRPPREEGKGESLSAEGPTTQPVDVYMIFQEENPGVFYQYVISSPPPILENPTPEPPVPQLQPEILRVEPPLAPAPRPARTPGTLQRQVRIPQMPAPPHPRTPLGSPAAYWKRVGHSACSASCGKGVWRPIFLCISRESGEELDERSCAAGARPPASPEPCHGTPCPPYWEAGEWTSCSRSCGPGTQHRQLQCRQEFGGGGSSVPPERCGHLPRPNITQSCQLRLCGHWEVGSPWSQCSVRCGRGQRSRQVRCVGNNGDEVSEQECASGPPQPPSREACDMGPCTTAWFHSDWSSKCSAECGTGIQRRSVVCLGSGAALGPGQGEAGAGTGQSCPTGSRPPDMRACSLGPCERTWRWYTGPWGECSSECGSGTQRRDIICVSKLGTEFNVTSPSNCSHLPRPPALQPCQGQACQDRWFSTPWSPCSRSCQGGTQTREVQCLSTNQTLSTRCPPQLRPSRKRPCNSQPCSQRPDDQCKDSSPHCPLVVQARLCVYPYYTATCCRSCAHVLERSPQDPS
UniProt P00519, whole entry, looked up: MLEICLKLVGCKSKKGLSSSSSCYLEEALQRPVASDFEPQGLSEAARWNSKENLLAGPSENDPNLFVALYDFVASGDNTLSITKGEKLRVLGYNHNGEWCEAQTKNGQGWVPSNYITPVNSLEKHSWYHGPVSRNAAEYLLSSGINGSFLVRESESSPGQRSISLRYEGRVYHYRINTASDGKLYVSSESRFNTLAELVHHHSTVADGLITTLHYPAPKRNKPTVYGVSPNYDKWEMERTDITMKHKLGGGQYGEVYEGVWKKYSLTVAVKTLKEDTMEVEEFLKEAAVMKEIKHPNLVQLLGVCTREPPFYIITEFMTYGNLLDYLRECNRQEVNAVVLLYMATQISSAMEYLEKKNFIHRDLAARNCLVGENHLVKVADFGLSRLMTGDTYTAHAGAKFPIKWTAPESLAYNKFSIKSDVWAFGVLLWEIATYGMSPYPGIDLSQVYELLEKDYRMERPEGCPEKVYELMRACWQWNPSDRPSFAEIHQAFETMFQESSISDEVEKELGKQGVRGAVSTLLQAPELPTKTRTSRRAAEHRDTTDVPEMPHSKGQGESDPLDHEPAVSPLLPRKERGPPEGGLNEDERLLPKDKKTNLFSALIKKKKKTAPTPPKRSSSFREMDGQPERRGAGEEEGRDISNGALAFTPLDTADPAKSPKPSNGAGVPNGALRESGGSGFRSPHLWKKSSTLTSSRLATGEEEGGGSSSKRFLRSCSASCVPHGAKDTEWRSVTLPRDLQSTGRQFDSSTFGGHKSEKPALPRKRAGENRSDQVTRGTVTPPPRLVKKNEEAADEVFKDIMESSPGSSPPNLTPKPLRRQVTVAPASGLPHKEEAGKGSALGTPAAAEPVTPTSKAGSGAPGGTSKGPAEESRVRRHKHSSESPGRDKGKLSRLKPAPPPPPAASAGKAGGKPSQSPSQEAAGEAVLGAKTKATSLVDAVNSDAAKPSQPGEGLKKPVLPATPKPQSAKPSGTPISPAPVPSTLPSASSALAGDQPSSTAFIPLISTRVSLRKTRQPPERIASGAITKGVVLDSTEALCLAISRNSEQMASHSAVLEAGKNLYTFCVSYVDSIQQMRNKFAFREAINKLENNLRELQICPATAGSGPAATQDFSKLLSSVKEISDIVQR
UniProt Q9BZC7: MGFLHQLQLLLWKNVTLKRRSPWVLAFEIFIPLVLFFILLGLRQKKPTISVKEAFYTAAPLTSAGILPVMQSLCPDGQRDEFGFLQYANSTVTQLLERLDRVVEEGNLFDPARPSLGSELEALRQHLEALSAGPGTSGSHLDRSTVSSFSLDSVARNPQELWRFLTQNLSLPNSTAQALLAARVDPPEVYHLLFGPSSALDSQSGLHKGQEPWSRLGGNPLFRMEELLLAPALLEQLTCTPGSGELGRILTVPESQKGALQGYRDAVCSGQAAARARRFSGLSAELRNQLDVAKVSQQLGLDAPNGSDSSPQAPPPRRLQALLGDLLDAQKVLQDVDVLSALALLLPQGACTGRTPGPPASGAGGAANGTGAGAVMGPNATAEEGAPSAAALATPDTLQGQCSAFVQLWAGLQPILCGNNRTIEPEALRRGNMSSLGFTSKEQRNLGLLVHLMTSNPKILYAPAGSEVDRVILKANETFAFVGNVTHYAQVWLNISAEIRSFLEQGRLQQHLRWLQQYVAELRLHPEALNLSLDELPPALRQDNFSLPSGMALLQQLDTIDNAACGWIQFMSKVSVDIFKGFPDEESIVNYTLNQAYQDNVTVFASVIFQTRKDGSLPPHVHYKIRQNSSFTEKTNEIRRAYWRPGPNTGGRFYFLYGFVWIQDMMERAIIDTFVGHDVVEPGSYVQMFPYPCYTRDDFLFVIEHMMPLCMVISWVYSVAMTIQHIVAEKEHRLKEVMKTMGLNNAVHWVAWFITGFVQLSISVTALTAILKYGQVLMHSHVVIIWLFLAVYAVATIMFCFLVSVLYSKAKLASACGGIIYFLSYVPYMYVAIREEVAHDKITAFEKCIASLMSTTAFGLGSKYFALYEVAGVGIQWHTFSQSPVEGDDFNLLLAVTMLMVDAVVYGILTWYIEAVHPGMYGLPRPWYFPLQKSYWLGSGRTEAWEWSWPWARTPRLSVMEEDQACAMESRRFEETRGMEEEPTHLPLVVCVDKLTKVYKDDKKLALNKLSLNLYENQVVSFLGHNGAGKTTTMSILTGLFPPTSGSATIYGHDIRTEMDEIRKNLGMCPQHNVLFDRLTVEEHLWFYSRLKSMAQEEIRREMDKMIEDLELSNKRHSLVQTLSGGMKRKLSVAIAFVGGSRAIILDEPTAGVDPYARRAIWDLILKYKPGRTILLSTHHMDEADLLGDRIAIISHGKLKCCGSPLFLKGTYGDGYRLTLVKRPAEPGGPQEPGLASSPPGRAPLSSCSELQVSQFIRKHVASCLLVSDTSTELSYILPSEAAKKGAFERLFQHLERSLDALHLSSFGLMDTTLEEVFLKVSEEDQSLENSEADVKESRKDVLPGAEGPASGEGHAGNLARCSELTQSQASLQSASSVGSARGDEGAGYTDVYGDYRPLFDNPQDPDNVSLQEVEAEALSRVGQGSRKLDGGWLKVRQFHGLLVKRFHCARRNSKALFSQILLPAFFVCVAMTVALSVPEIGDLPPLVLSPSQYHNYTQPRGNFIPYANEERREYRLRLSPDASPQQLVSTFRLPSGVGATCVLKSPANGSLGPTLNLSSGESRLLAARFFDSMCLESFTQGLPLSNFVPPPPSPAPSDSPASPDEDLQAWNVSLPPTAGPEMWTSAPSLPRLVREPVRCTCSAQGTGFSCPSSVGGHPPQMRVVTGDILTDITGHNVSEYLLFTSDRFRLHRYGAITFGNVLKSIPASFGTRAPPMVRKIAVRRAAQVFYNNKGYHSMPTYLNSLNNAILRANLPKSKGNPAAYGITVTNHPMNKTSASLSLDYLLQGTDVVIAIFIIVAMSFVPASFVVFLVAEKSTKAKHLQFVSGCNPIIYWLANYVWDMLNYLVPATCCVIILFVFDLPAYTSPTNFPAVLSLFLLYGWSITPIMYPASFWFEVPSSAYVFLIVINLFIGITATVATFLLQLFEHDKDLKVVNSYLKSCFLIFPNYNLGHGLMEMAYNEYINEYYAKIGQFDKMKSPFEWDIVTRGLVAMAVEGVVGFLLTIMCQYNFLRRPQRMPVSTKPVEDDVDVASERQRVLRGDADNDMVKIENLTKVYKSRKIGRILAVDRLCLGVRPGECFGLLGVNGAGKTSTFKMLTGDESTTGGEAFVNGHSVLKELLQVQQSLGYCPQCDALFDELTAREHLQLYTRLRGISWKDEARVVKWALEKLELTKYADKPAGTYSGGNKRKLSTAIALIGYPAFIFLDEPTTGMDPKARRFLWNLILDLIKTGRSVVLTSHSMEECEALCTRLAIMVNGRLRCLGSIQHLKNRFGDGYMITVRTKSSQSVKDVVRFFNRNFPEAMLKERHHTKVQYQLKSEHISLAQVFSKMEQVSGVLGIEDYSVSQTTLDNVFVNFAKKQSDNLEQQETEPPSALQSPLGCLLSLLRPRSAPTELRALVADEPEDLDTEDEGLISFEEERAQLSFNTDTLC
UniProt Q9P1F3: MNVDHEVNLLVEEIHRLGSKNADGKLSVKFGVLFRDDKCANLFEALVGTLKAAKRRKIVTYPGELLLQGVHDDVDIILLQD
UniProt Q9NP58: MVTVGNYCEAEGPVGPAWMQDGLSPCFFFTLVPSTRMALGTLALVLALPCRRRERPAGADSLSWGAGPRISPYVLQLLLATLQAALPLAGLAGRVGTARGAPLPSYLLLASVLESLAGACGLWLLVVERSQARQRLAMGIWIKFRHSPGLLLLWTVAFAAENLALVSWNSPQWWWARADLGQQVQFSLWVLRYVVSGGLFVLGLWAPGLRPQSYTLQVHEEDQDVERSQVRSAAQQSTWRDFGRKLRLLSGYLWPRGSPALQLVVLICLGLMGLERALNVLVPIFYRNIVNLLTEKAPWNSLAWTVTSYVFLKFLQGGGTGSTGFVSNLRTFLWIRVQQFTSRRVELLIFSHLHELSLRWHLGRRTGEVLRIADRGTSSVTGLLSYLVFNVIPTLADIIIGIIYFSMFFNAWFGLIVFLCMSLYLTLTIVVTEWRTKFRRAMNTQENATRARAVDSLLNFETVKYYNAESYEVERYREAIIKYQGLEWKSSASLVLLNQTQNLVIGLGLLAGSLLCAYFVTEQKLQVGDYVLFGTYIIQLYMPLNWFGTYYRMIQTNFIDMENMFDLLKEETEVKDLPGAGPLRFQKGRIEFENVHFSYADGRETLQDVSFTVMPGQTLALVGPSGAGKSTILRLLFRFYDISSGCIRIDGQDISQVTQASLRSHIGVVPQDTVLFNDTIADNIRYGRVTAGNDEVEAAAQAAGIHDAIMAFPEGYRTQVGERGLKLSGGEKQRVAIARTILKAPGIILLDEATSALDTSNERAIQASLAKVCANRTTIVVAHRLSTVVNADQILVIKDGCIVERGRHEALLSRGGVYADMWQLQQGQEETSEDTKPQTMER
UniProt Q9BWD1: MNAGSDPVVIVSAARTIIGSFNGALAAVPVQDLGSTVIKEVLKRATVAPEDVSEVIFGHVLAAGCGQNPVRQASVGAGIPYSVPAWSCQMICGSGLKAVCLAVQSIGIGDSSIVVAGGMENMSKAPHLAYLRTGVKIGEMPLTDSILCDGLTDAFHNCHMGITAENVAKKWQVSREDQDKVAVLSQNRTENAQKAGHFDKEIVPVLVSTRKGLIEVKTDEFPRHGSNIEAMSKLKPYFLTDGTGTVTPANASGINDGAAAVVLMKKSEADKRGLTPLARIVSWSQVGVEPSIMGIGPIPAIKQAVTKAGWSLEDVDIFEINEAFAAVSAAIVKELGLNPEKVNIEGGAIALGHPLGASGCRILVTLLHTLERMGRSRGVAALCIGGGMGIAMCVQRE
UniProt Q7Z6V5: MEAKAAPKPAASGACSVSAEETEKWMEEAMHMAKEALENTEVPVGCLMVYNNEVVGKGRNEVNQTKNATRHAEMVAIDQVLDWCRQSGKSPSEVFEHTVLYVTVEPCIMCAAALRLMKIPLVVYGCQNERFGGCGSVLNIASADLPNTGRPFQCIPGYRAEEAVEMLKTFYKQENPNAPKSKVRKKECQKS

Tests used:
Experiment in all cases: log2 fold change, soluble protein after heating vs DMSO (PISA); higher = thermal stabilisation; K562 cells, 10 uM, 30 min; active = over 0.2 and 3.5 SD of the protein, either way, in both replicates (recomputed)
[1] = compound: C1=CC=C(C=C1)[C@H](COC2=CC3=C(C=C2)NC(=O)N3)NC(=O)C4=CC=CN(C4=O)CC5=CC(=C(C=C5)F)F
How it was run: (§1)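 Thermal stability values are relative to control samples and come from duplicates. They are expressed as log2 fold changes. For measurement, K562 cells (2×10^6 cells/mL) received 10 μM compound for 30 min, and aliquots were heated for 3 min over 48°C-58°C, pooled, and extracted at 4°C in PBS with 0.5% NP-40. Soluble protein, the supernatant after 21,000xg for 90 min, was quantified by TMTpro 16plex LC-MS/MS with equalised channel sums.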

[2] = compound: CC1=C(SC2=C1C(=N[C@H](C3=NN=C(N32)C)CC(=O)N)C4=CC=C(C=C4)Cl)C
How it was run: as §1

[3] = compound: CC1=C2C(=CC=C1)N=C(N(C2=O)C3=CC=CC=C3C)CN4C=NC5=C(N=CN=C54)N
How it was run: as §1

[4] = compound: Cc1sc2c(c1C)C(c1ccc(Cl)cc1)=N[C@@H](CC(=O)OC(C)(C)C)c1nnc(C)n1-2
How it was run: as §1

[5] = compound: c1ccc([C@@H]2C[C@H]2NC2CCNCC2)cc1
How it was run: as §1

[6] = compound: C1=CC(=C(C=C1Cl)C2=NC3=NC=CN=C3C(=N2)NC4=CC=NC=C4)F
How it was run: as §1

[7] = compound: C1=CC2=NC=CN=C2C=C1/C=C/3\C(=O)NC(=O)S3
How it was run: as §1

[8] = compound: C1=CC=C(C=C1)C2=NC(=C(N2)C3=CC=NC=C3)C4=CC(=C(C=C4)Cl)O
How it was run: as §1

ibrutinib = compound: C=CC(=O)N1CCC[C@@H](n2nc(-c3ccc(Oc4ccccc4)cc3)c3c(N)ncnc32)C1 [ibrutinib]
How it was run: as §1

ralimetinib = compound: CC(C)(C)Cn1c(N)nc2ccc(-c3[nH]c(C(C)(C)C)nc3-c3ccc(F)cc3)nc21 [ralimetinib]
How it was run: as §1

[9] = compound: CC(C)(O)CC(=O)NCCn1ccc2ncnc(Nc3ccc(Oc4cccc(C(F)(F)F)c4)c(Cl)c3)c21
How it was run: as §1

[10] = compound: CC(C)C[C@@H](C=O)NC(=O)[C@H](CC(C)C)NC(=O)[C@H](CC(C)C)NC(=O)OCc1ccccc1
How it was run: as §1

[11] = compound: CC1=C(C=C(C=C1)NC(=O)C2=CC(=CC=C2)C(C)(C)C#N)NC3=CC4=C(C=C3)N=CN(C4=O)C
How it was run: as §1

[12] = compound: CC1=C(C=C(C=C1)NC(=O)C2=CC(=CC=C2)N(C)C)NC(=O)C3=CC=C(C=C3)O
How it was run: as §1

[13] = compound: CC1=CC=C(C=C1)SC2=C3C=C(SC3=CN=C2)C(=O)N
How it was run: as §1

Nexturastat A = compound: CCCCN(Cc1ccc(C(=O)NO)cc1)C(=O)Nc1ccccc1 [Nexturastat A]
How it was run: as §1

[14] = compound: CCCS(=O)(=O)Nc1ccc(F)c(C(=O)c2c[nH]c3ncc(Cl)cc23)c1F
How it was run: as §1

barasertib = compound: CCN(CCCOc1ccc2c(Nc3cc(CC(=O)Nc4cccc(F)c4)[nH]n3)ncnc2c1)CCOP(=O)(O)O [barasertib]
How it was run: as §1

volasertib = compound: CC[C@@H]1C(=O)N(C)c2cnc(Nc3ccc(C(=O)N[C@H]4CC[C@H](N5CCN(CC6CC6)CC5)CC4)cc3OC)nc2N1C(C)C [volasertib]
How it was run: as §1

epoxomicin = compound: CC[C@H](C)[C@@H](C(=O)N[C@@H]([C@@H](C)O)C(=O)N[C@@H](CC(C)C)C(=O)[C@]1(CO1)C)NC(=O)[C@H]([C@@H](C)CC)N(C)C(=O)C [epoxomicin]
How it was run: as §1

rosiglitazone = compound: CN(CCOC1=CC=C(C=C1)C[C@H]2C(=O)NC(=O)S2)C3=CC=CC=N3 (racemic) [rosiglitazone]
How it was run: as §1

sotrastaurin = compound: CN1CCN(c2nc(C3=C(c4c[nH]c5ccccc45)C(=O)NC3=O)c3ccccc3n2)CC1 [sotrastaurin]
How it was run: as §1

filanesib = compound: CON(C)C(=O)N1N=C(c2cc(F)ccc2F)S[C@@]1(CCCN)c1ccccc1 [filanesib]
How it was run: as §1

[15] = compound: COc1cc2nc(-c3cc(F)ccc3O)nc(N[C@@H]3CNC[C@H]3C(C)(C)O)c2cc1OC
How it was run: as §1

lapatinib = compound: CS(=O)(=O)CCNCc1ccc(-c2ccc3ncnc(Nc4ccc(OCc5cccc(F)c5)c(Cl)c4)c3c2)o1 [lapatinib]
How it was run: as §1

[16] = compound: CS(=O)(=O)c1ccc(-c2cnc(N)c(C(=O)Nc3ccccc3)n2)cc1
How it was run: as §1

[17] = compound: C[C@@H]1COCCN1C2=NC(=NC(=C2)C3(CC3)S(=O)(=O)C)C4=C5C=CNC5=CC=C4
How it was run: as §1

ispinesib = compound: Cc1ccc(C(=O)N(CCCN)[C@@H](c2nc3cc(Cl)ccc3c(=O)n2Cc2ccccc2)C(C)C)cc1 [ispinesib]
How it was run: as §1

bafetinib = compound: Cc1ccc(NC(=O)c2ccc(CN3CC[C@H](N(C)C)C3)c(C(F)(F)F)c2)cc1Nc1nccc(-c2cncnc2)n1 [bafetinib]
How it was run: as §1

[18] = compound: Cn1cc(-c2ccc3nnc(C(F)(F)c4ccc5ncccc5c4)n3n2)cn1
How it was run: as §1

tipifarnib = compound: Cn1cncc1[C@@](N)(c1ccc(Cl)cc1)c1ccc2c(c1)c(-c1cccc(Cl)c1)cc(=O)n2C [tipifarnib]
How it was run: as §1

[19] = compound: NC(=O)Nc1cc(-c2cccc(F)c2)sc1C(=O)N[C@H]1CCCNC1
How it was run: as §1

entinostat = compound: Nc1ccccc1NC(=O)c1ccc(CNC(=O)OCc2cccnc2)cc1 [entinostat]
How it was run: as §1

[20] = compound: O=C1NC(=O)C(c2cnc3ccccn23)=C1c1cn2c3c(cc(F)cc13)CN(C(=O)N1CCCCC1)CC2
How it was run: as §1

Measured: log2 fold change

ABHD16A (UniProt O95870)
inactive: [1] -0.005 | [2] 0.011 | [3] 0.026 | [4] 0.066 | [5] -0.088

ACY1 (UniProt Q03154)
inactive: [1] 0.028 | [2] 0.057 | [3] 0.034 | [4] -0.018 | [5] -0.003

ABRAXAS1 (UniProt Q6UWZ7)
inactive: [1] 0.231 | [2] -0.199 | [3] -0.105 | [4] 0.033 | [5] 0.104

ABHD14B (UniProt Q96IU4)
inactive: [1] -0.008 | [2] 0.078 | [3] 0.05 | [4] -0.068 | [5] -0.016

ADAMTSL4 isoform 3 (UniProt Q6UY14)
inactive: [1] -0.057 | [2] -0.083 | [3] 0.006 | [4] 0.026 | [5] 0.021

ACAT1 (UniProt P24752)
inactive: [1] 0.009 | [2] 0.045 | [3] 0.03 | [4] -0.057 | [5] 0

AAGAB (UniProt Q6PD74)
inactive: [1] -0.025 | [2] 0.044 | [3] 0.198 | [4] -0.03 | [5] 0.038

2 entries drawn at random from the list so far, as already listed:
ABHD14B (UniProt Q96IU4)
inactive: [1] -0.008 | [2] 0.078 | [3] 0.05 | [4] -0.068 | [5] -0.016

ACAT1 (UniProt P24752)
inactive: [1] 0.009 | [2] 0.045 | [3] 0.03 | [4] -0.057 | [5] 0

(continued)

ABL1 isoform 2 (UniProt P00519)
inactive: [1] 0.072 | [2] 0.031 | [3] -0.013 | [4] 0.093 | [5] -0.011

ABHD17B (UniProt Q5VST6)
inactive: [1] 0.043 | [2] 0.015 | [3] 0.032 | [4] -0.038 | [5] 0.022

ACP2 (UniProt P11117)
inactive: [1] 0.027 | [2] -0.023 | [3] 0.008 | [4] -0.023 | [5] 0.024

ABCA2 isoform 3 (UniProt Q9BZC7)
inactive: [1] 0.027

ACTR10 (UniProt Q9NZ32)
inactive: [1] -0.004 | [2] -0.051 | [3] -0.024 | [4] -0.036 | [5] 0.128

ABRACL (UniProt Q9P1F3)
inactive: [1] -0.353

ACTL8 (UniProt Q9H568)
inactive: [1] 0.017 | [2] -0.025 | [3] 0.035 | [4] -0.05 | [5] 0.028

ACADS (UniProt P16219)
inactive: [1] -0.009 | [2] 0.05 | [3] -0.09 | [4] -0.012 | [5] -0.049

ACTR1A (UniProt P61163)
inactive: [1] 0.025 | [2] 0.009 | [3] 0.025 | [4] 0.004 | [5] 0.002

ABCB5 (UniProt Q2M3G0)
inactive: [1] 0.054

ABCB6 (UniProt Q9NP58)
inactive: [1] 0.001 | [2] 0.003 | [3] 0.05 | [4] -0.049 | [5] 0.012

ACAT2 (UniProt Q9BWD1)
inactive: [1] -0.024 | [2] -0.018 | [3] 0.031 | [4] -0.052 | [5] -0.052

ACAA1 (UniProt P09110)
inactive: [1] -0.015 | [2] 0.04 | [3] 0.055 | [4] -0.005 | [5] 0.022

ADAT2 (UniProt Q7Z6V5)
inactive: [1] -0.052 | [2] 0.01 | [3] 0.003 | [4] 0.027 | [5] -0.022

ACHE isoform 2 (UniProt P22303)
inactive: [6] -0.111 | [7] -0.124 | [8] -0.708 | [1] 0.055 | ibrutinib 0.097 | ralimetinib -0.492 | [9] 0.197 | [10] 0.258 | [11] 0.067 | [12] 0 | [13] -0.378 | Nexturastat A 0.103 | [14] -0.252 | barasertib 0.208 | volasertib 0.161 | epoxomicin -0.191 | rosiglitazone -0.037 | sotrastaurin -0.082 | filanesib -0.307 | [15] 0.524 | lapatinib -0.563 | [16] -0.015 | [17] -0.169 | ispinesib -0.552 | bafetinib -0.407 | [18] 0.224 | tipifarnib 0.356 | [19] 0.065 | entinostat 0.244 | [20] -0.061
